Experimental data as given in article PMC9060347.
No constants are given. Whether binding was seen depends on the method and setting. Some entries that bind do so weakly or less than the wild type.

Molecular target: human αB-crystallin (human) (UniProt P02511)
Assay: dynamic light scattering; 1 mg/mL in phosphate buffer pH 7.4; 27, 37 and 47 °C; hydrodynamic diameter of the oligomers; both purified

B1: human αB-crystallin (protein, UniProt P02511 1-175)
chain: MDIAIHHPWIRRPFFPFHSPSRLFDQFFGEHLLESDLFPTSTSLSPFYLRPPSFLRAPSWFDTGLSEMRLEKDRFSVNLDVKHFSPEELKVKVLGDVIEVHGKHEERQDEHGFISREFHRKYRIPADVDPLTITSSLSSDGVLTVNGPRKQVSGPERTIPITREEKPAVTAAPKK
  binding: binds
